# Assay results

Data taken from PubChem BioAssay AID1159506, deposited by NCATS (2015).

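Genome-wide siRNA knockdown in TC32 Ewing sarcoma cells, comparing luciferase light from an NR0B1-promoter reporter with a CMV-promoter reporter 48 hours after transfection.
Each siRNA was applied at 20 nM.
A z-score of the log NR0B1-over-CMV signal, less the median of siRNAs with the same seed; more negative means a stronger specific loss of the NR0B1 reporter.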

The strongest results of the screen are mostly left out here.
Sequences are the guide (antisense) strand, without overhang.

{"sirna": "UAGGCUCUGAACCUUAUGC", "target gene": "CUX1", "seed-corrected z-score": "0.1365"}
{"sirna": "UUUGACUUAACAUAGAAUG", "target gene": "ZNF37A", "seed-corrected z-score": "-0.9141"}
{"sirna": "UCCGUGUUAAGCAGCAUGA", "target gene": "PSD4", "seed-corrected z-score": "-0.3861"}
{"sirna": "UAUGUUUCCUGCACAGUAU", "target gene": "OR56A4", "seed-corrected z-score": "-0.4345"}
{"sirna": "UAUGUCGCUCGAACAGUCG", "target gene": "SPATA7", "seed-corrected z-score": "-0.9883"}
{"sirna": "UAUCAGUCCAACCCAGCUG", "target gene": "CYBRD1", "seed-corrected z-score": "0.1317"}
{"sirna": "UCUAAUACCAAACUGGUCC", "target gene": "GPR62", "seed-corrected z-score": "-0.4376"}
{"sirna": "CAGGGUGGGACAUUGCACA", "target gene": "GPIHBP1", "seed-corrected z-score": "-0.2774"}
{"sirna": "UAGGGAUCGAUAUCGCUGC", "target gene": "LEXM", "seed-corrected z-score": "-1.182"}
{"sirna": "UUUGAUCCUUGAGCUACGC", "target gene": "MAP3K1", "seed-corrected z-score": "-0.08073"}
{"sirna": "AUGGUAAUAGAUGGUAUCC", "target gene": "AGBL5", "seed-corrected z-score": "-0.929"}
{"sirna": "UCUGGAAAUCUGGUGCAUG", "target gene": "CYB561D1", "seed-corrected z-score": "-0.5356"}
{"sirna": "AAUUGAACAAGUUCGUUAG", "target gene": "OXR1", "seed-corrected z-score": "0.5249"}
{"sirna": "UUCUAAAAUAUCAAGGAGC", "target gene": "HUNK", "seed-corrected z-score": "-0.482"}
{"sirna": "UCAGGGUCCACAACCACCU", "target gene": "BYSL", "seed-corrected z-score": "1.077"}
{"sirna": "UAGAGAUUUGCAAAACUCC", "target gene": "ABHD10", "seed-corrected z-score": "2.121"}
{"sirna": "UAAAUACAUAUUGAAGAGA", "target gene": "HOXC9", "seed-corrected z-score": "0.3933"}
{"sirna": "UUAUACUUAGGUGGUCUCC", "target gene": "ZNF630", "seed-corrected z-score": "-0.487"}
{"sirna": "UAAUCGACAGGUGUGACUC", "target gene": "TSNAX", "seed-corrected z-score": "0.05517"}
{"sirna": "UCAGGUAUAGACAUCUGUC", "target gene": "GATC", "seed-corrected z-score": "-0.7113"}
{"sirna": "UAAAAUGUAAAUCCGAUGU", "target gene": "FENDRR", "seed-corrected z-score": "-0.1711"}
{"sirna": "UUUCCACCCAGUAUUCUGC", "target gene": "RGPD3", "seed-corrected z-score": "-0.1603"}
{"sirna": "UUCUUACCAAUUUCUGCUG", "target gene": "CYLC2", "seed-corrected z-score": "1.097"}
{"sirna": "UAACUGGUCAGUUCAAUGC", "target gene": "AGMO", "seed-corrected z-score": "0.5103"}
{"sirna": "UUAUGGAAAGAGGACAUUG", "target gene": "C9orf152", "seed-corrected z-score": "-1.611"}
{"sirna": "ACAGAUACCACUCUCCUUG", "target gene": "SCRN2", "seed-corrected z-score": "0.6764"}
{"sirna": "UCCGCUUAGAGCAAGUGUC", "target gene": "COL5A2", "seed-corrected z-score": "0.02696"}
{"sirna": "UGUAUUUGAACUCUUUCUC", "target gene": "CLIC3", "seed-corrected z-score": "-1.593"}
{"sirna": "UAGUAGAUAAAACCUAUUG", "target gene": "ZNF121", "seed-corrected z-score": "-0.9168"}
{"sirna": "UUAUUUCCGAUAGCUAAAC", "target gene": "CC2D2B", "seed-corrected z-score": "0.1903"}
{"sirna": "UCUUAUAAUAUAGACCUCC", "target gene": "CFHR4", "seed-corrected z-score": "-0.2227"}
{"sirna": "UAGGCUGUGACUGCUUCUC", "target gene": "EVI2B", "seed-corrected z-score": "-0.756"}
{"sirna": "UCGACUGUAAGAAAAUCGC", "target gene": "USP15", "seed-corrected z-score": "-0.02282"}
{"sirna": "UUCAGUGGUAGGGAUAUUG", "target gene": "INPP5K", "seed-corrected z-score": "0.139"}
{"sirna": "AUUGGUGCAACUUACACGG", "target gene": "PMS2", "seed-corrected z-score": "-1.942"}
{"sirna": "UAGGCGACCUUGUAGUCCG", "target gene": "MRPL23", "seed-corrected z-score": "-0.0368"}
{"sirna": "UGACUUUUGAGUAGUGCAG", "target gene": "SOWAHB", "seed-corrected z-score": "-0.6153"}
{"sirna": "UGAAGUGCUUCCGACAGCC", "target gene": "IZUMO1R", "seed-corrected z-score": "0.1696"}
{"sirna": "UAGACAACUACUUGUAUGC", "target gene": "FAM73A", "seed-corrected z-score": "-0.4941"}
{"sirna": "UCCACUAUCUGGCGGUUGG", "target gene": "KRT18P8", "seed-corrected z-score": "0.3842"}
{"sirna": "UGACGAGUCACGUACUCCU", "target gene": "PEX16", "seed-corrected z-score": "-0.05699"}
{"sirna": "UUCAUCACCAGAGCGGCCU", "target gene": "LOC730961", "seed-corrected z-score": "0.2426"}

Repeated from the top, 5 entries:

| siRNA | target gene | seed-corrected z-score |
|---|---|---|
| `UAGGCUCUGAACCUUAUGC` | CUX1 | 0.1365 |
| `UUUGACUUAACAUAGAAUG` | ZNF37A | -0.9141 |
| `UCCGUGUUAAGCAGCAUGA` | PSD4 | -0.3861 |
| `UAUGUUUCCUGCACAGUAU` | OR56A4 | -0.4345 |
| `UAUGUCGCUCGAACAGUCG` | SPATA7 | -0.9883 |